# Screening data, single-dose tests

Chains of the proteins cited; added tags and fusions are not shown. Residues count along the entry.
UniProt A4I591, 1-473: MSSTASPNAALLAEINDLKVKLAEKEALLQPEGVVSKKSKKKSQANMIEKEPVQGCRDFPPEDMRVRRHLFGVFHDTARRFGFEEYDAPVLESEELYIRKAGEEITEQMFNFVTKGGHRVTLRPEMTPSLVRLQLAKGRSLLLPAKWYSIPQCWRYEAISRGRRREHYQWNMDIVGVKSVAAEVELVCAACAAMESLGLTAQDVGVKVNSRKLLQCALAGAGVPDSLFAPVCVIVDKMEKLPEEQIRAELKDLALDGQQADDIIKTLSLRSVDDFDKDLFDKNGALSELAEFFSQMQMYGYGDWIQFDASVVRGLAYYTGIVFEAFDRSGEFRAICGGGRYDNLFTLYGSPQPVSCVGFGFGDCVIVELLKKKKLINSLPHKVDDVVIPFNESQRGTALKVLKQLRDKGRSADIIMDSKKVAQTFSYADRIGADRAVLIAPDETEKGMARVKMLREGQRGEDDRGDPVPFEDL
UniProt I6X8D2, whole entry: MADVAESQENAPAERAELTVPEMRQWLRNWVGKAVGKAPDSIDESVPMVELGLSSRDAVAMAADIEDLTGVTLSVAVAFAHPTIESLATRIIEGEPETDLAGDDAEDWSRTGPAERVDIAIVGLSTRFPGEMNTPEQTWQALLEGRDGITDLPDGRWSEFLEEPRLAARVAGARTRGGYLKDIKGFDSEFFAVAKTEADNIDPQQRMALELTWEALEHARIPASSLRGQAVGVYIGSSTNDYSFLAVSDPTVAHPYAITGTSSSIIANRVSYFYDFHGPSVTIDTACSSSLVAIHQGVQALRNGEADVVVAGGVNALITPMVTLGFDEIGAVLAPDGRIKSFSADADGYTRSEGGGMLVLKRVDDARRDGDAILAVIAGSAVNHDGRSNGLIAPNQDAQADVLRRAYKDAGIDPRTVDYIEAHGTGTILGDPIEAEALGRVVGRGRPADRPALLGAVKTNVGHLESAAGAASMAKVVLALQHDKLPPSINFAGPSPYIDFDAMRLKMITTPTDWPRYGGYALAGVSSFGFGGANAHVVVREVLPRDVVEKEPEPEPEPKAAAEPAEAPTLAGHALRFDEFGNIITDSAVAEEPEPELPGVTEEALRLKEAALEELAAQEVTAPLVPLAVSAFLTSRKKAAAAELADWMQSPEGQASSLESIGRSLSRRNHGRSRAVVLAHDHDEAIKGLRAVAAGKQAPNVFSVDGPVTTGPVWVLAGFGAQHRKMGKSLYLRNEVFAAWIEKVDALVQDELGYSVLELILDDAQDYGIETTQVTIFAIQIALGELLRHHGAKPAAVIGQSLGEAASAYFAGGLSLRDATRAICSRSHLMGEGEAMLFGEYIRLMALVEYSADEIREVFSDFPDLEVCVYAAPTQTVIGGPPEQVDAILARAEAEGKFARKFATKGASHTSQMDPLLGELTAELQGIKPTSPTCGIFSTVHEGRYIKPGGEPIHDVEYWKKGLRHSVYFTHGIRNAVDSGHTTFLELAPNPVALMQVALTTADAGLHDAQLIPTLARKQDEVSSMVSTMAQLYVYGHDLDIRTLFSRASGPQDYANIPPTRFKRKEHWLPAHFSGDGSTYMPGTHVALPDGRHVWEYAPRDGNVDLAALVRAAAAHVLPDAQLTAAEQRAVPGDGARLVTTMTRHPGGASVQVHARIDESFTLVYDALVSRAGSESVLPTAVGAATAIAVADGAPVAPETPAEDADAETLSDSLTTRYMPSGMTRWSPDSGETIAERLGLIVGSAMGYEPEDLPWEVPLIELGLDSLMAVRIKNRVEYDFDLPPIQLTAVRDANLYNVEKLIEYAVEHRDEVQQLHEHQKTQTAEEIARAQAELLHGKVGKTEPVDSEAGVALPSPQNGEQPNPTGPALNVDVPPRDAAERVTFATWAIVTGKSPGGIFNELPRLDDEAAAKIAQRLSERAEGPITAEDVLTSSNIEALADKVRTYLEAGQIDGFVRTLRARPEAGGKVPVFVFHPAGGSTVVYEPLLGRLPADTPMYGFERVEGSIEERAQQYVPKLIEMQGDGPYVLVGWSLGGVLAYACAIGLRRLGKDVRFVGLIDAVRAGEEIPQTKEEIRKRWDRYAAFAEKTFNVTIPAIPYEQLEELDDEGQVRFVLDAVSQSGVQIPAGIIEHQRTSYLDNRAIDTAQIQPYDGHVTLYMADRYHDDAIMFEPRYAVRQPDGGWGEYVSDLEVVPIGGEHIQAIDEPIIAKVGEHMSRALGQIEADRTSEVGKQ
UniProt P9WFT3, whole entry: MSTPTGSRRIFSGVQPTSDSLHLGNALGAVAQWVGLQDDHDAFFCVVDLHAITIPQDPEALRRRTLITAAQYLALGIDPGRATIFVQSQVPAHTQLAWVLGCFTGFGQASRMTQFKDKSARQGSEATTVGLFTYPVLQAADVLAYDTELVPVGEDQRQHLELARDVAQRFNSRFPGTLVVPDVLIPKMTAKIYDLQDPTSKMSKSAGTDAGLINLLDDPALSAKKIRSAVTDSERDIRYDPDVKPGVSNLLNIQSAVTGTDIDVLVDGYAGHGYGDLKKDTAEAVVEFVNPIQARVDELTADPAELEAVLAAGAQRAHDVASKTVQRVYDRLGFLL
UniProt Q4DA54, 1-478: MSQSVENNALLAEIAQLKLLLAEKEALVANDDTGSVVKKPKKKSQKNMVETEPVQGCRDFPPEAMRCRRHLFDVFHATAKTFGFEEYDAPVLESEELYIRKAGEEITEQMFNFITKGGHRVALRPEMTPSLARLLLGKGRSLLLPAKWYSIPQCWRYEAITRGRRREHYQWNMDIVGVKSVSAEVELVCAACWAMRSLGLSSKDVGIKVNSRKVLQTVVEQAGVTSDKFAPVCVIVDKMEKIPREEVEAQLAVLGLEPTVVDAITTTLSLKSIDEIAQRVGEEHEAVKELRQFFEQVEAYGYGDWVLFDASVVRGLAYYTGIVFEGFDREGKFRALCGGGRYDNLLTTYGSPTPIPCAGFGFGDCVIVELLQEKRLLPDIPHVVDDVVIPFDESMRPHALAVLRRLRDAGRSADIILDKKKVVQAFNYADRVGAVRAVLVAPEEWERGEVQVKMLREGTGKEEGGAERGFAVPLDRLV

From ChEMBL document CHEMBL3988442, “University of Dundee, Small-Polar-MMV Screening Library” (2021).

LiHisRS: 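Histidine-tRNA ligase, Leishmania infantum (UniProt A4I591). Enzyme assay of histidyl-tRNA synthetase; the read-out is not stated. Tested at 30 µM. Direction is inferred from retests: higher values go with stronger inhibition. The assay is labelled LdHisRS but filed under L. infantum. Of about 69,000 compounds tested this way, about 410 (0.6%) reached 50% or more in at least one test.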
Pks13 thioesterase: 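Enzyme assay of the thioesterase domain of polyketide synthase 13; the read-out is not stated. Target: Polyketide synthase Pks13, Mycobacterium tuberculosis (UniProt I6X8D2). Compounds at 30 µM. The record gives no direction; the compounds picked for IC50 retests had high values, so higher reads as stronger inhibition. About 67,000 compounds were tested under these conditions; 0.46% (about 300) showed 50% or more at least once.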
MtTrpRS: 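Enzyme assay of tryptophanyl-tRNA synthetase; the read-out is not stated. Target: Tryptophan-tRNA ligase, Mycobacterium tuberculosis (UniProt P9WFT3). Compounds at 10 µM. Higher most likely means stronger inhibition; the record gives no direction and few retests gave an IC50. About 65,000 compounds were tested under these conditions; 0.098% (about 64) showed 50% or more at least once.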
TcHisRS: 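Histidine-tRNA ligase, Trypanosoma cruzi CL Brener (UniProt Q4DA54). Enzyme assay of histidyl-tRNA synthetase; the read-out is not stated. Compounds at 30 µM. The record gives no direction; compounds that gave an IC50 in retests scored well above the rest, so higher reads as stronger inhibition. Of about 69,000 compounds tested this way, about 31 (0.045%) reached 50% or more in at least one test.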

Each number is a percent effect as filed.
The record does not define 0% and 100%; most values in the screen are far below 50% and negative numbers occur (in some assays of this library far below -100).
The compounds are a random part of those screened.
A dash means the value is not listed here; it may have been measured.

compound,LiHisRS,Pks13 thioesterase,MtTrpRS,TcHisRS
COCCN1C(=O)[C@H]2CC[C@@H]1CN(C(=O)Cc1ccc(O)c(Cl)c1)C2,-3.333,31.01,11.04,3.896
CC(=O)N1CCN(C(C)C)CC(COc2ccccc2)C1 (stereo not drawn),13.54,-6.94,-,-2.128
CN(C)c1ccc(CC2CCN(c3cnccn3)C2)nn1 (stereo not drawn),12.68,9.075,-3.057,5.385
COCCN(Cc1cnn(C)c1)c1nc(C)nc2sccc12,19.74,-8.457,-1.784,5.435
O=C(NCCc1coc(-c2ccc(F)cc2)n1)NCC1CCOC1 (stereo not drawn),-0.885,-7.766,-3.219,2.212
c1cnn(CC2CCCN2Cc2noc(C3CC3)n2)c1 (stereo not drawn),10.43,-5.821,3.7,5.172
CCCN(CCC)C(=O)CN(C)Cc1cnc(C)s1,-3.797,-36.54,-5.078,7.328
O=c1cc(CNS(=O)(=O)C2CC2)nc2n1CCCNC2,20,-17.02,-5.489,4.598
COc1cc(NCCNC(=O)c2cc[nH]c2C)cc(OC)c1,8.73,-1.506,0.6721,5.882
NC(=O)COc1ccc(CN2CCC3(CC2)[C@H](O)C[C@@H]3O)cc1Cl,-11.11,-14.73,-3.704,-0.6061
NS(=O)(=O)CC1CCN(c2ncccc2C(F)(F)F)CC1,24.66,16.13,8.942,2.186
CSCC[C@H](N)C(=O)NCc1cc2n(n1)CCCN(C1CCCCC1)C2,22.12,-4.323,-3.223,4.878
Cc1ccc(Sc2ccc(CN3CCC4(CCCNC4=O)C3)o2)cc1 (stereo not drawn),27.08,-18.9,3.425,7.595
Cn1cnc2c1C(COCC1CC1)CN(Cc1ccsc1)C2 (stereo not drawn),12.62,-12.44,-2.977,2.174
COc1ccc(-n2ccc(C(=O)NCCN3CCCCC3C)n2)cc1 (stereo not drawn),-266.7,-2.796,-1.8,3.008
Cc1ccc(C(=O)N2CCOCC2C(N)=O)c(F)c1 (stereo not drawn),3.571,-7.283,-7.825,5.263
COC[C@@H]1CN(C)C(=O)[C@@H]2CCN(Cc3ccco3)CC[C@H]12,20.69,13.45,0.7551,8.861
CNC(=O)C1CN(C(=O)c2ccncc2)CCN(S(C)(=O)=O)C1 (stereo not drawn),4.225,-41.59,6.201,0.7576
Cn1ccnc1CN1CCC2(CC1)CN(c1ccccc1)C(=O)CO2,9.735,0.6047,0.3984,7.527
O=C(O)C(c1ccc2c(c1)OCCO2)N1CCCC1 (stereo not drawn),7.292,-26.36,-2.506,2.235
CCC(C)(C)n1nnnc1C(c1cccs1)N1CCc2ccccc2C1 (stereo not drawn),10.74,7.713,-5.028,3.714
Cc1noc(CCCNS(=O)(=O)N2CCCC2c2ccco2)n1 (stereo not drawn),8.547,-27.19,-2.07,-0.5405
CC(C)NC(=O)C1CCc2nnc(CNC(=O)C3CC3)n21 (stereo not drawn),8.276,-18.92,0.9507,2.959
O=C(CC1CCc2ccccc21)NCCSc1cnn[nH]1 (stereo not drawn),21.13,-210,4.423,-4.972
CC(C)c1nn(C)c(N2CCOCC2)c1CNCc1cscn1,13.25,6.176,-2.719,4.878
Cc1ccc(F)cc1CC(=O)N1CC[C@@]2(O)CCNC[C@H]2C1,4.918,-2.36,-2.992,3.03
CN(CCn1cccn1)S(=O)(=O)c1cccc(Cl)c1C#N,14.91,-12.49,-0.9336,5.172
c1cnc(N2CCCC3(COCCN(CC4CC4)C3)C2)nc1 (stereo not drawn),34.29,-31.68,0.3255,1.961
Cn1cc(CNC2CCc3c(ccc(=O)n3Cc3cccnc3)C2)cn1 (stereo not drawn),9.901,-0.7697,-,0.5025
CC(C)C(C)(CNC(=O)OC(C)(C)C)NC(=O)c1cnccn1 (stereo not drawn),17.14,-38.95,0.1679,0
COc1ccc(CN[C@H]2CC[C@@]3(CCC(=O)N3)CC2)cc1,9.709,-6.61,8.165,2.913
CC(=O)NCCC(=O)NC1(c2ccc(Cl)c(Cl)c2)CC1,13.79,-34.72,2.767,2.618
CCCN1CCN(S(=O)(=O)c2ccccc2OC)[C@H]2CS(=O)(=O)C[C@H]21,15.56,5.07,12.27,6.667
COc1ncc(NCc2cccc(C#N)c2)cc1C(N)=O,-2.073,14.1,-1.125,-1.657
O=C(C1CC1)N1CCC2(CC1)CNc1ccc(F)cc12,16.24,-31.91,-0.07052,2.674
CC(C)[C@H]1CN(C2Cc3ccccc3C2)C[C@@H]1NS(C)(=O)=O,34.29,-2.211,17.46,6.122
CC(=O)c1cccc(OCc2cc(C(=O)N3CCCCO3)n[nH]2)c1,0,-14.72,2.549,2.41
O=C(c1ccoc1)N(Cc1ccccn1)C1CC1,20.65,-8.253,-4.977,-16.83
CCn1c(CN(C)C)nnc1C1CCN(Cc2cccc(C#N)c2)CC1,8.8,-2.278,-3.986,-1.508
Cc1cccc(-c2ccc3nc(C4CCN(CC5CC5)CC4)nn3c2)c1,9.524,-13.46,0.7401,9.917
O=S(=O)(c1ccccc1)N1CCN(CCn2ccnc2)CC1,23.08,-36.41,2.352,4.959
CN(C)Cc1nnc(C2CCCN(Cc3ccc(Cl)s3)C2)n1C (stereo not drawn),13.6,-17.03,1.232,-0.5025
CC(NC(=O)N1CCC(CC(N)=O)CC1)c1csc2ccccc12 (stereo not drawn),17.65,-11.88,0.2973,7.937
NC(=O)CSc1nccc(-c2ccc3c(c2)OCO3)n1,16.49,59.54,-,4.624
CCc1noc(CS(=O)(=O)CC(=O)N2c3ccccc3CC2C)n1 (stereo not drawn),13.7,-6.78,-3.121,3.175
COCC(=O)N1CCC(c2nc3ccc(N4CCOCC4)cn3n2)CC1,13.51,-4.352,-0.3814,-3.483

The last 4 entries again:

{"compound": "CC(NC(=O)N1CCC(CC(N)=O)CC1)c1csc2ccccc12", "stereo": "stereo not drawn", "LiHisRS": 17.65, "Pks13 thioesterase": -11.88, "MtTrpRS": 0.2973, "TcHisRS": 7.937}
{"compound": "NC(=O)CSc1nccc(-c2ccc3c(c2)OCO3)n1", "LiHisRS": 16.49, "Pks13 thioesterase": 59.54, "TcHisRS": 4.624}
{"compound": "CCc1noc(CS(=O)(=O)CC(=O)N2c3ccccc3CC2C)n1", "stereo": "stereo not drawn", "LiHisRS": 13.7, "Pks13 thioesterase": -6.78, "MtTrpRS": -3.121, "TcHisRS": 3.175}
{"compound": "COCC(=O)N1CCC(c2nc3ccc(N4CCOCC4)cn3n2)CC1", "LiHisRS": 13.51, "Pks13 thioesterase": -4.352, "MtTrpRS": -0.3814, "TcHisRS": -3.483}